This is an account of results in patent US20190275087A1, “EXPANSION AND DIFFERENTIATION OF STEM CELLS” (Allergan Pharmaceuticals International Limited, priority 2018, published 2019).

Chains of the proteins cited; added tags and fusions are not shown. Lines headed by an entry give the natural chain unless they say otherwise; changes in a name come on top. A line that says so, or that is headed by a name, gives the form on record, which may keep a tag or linker.
UniProt P06756: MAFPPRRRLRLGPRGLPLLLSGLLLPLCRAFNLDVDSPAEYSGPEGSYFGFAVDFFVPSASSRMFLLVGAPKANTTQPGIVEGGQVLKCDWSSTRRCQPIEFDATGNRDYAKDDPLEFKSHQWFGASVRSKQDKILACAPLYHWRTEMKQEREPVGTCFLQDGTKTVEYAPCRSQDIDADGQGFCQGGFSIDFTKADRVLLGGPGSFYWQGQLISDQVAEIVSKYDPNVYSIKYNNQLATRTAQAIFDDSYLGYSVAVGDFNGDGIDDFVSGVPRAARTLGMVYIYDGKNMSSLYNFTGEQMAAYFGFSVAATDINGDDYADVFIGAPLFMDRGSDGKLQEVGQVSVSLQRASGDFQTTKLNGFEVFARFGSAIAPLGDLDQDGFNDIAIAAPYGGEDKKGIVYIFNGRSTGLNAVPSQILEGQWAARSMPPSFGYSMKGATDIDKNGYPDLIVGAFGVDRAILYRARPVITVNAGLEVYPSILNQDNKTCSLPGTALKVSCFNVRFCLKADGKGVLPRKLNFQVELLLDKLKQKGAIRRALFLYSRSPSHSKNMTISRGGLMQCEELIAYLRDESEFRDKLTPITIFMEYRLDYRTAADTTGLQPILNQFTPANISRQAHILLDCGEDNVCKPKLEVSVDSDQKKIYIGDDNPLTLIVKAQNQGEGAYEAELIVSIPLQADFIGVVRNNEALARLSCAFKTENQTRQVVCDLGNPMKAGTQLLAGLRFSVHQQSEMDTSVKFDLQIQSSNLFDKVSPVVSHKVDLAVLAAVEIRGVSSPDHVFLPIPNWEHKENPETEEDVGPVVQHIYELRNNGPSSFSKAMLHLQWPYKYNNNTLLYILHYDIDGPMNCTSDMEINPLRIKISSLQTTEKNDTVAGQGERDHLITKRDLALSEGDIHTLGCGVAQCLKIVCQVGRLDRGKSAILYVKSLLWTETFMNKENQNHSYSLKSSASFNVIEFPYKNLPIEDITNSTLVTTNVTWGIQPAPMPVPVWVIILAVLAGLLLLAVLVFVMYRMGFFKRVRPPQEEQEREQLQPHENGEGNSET
UniProt P05106: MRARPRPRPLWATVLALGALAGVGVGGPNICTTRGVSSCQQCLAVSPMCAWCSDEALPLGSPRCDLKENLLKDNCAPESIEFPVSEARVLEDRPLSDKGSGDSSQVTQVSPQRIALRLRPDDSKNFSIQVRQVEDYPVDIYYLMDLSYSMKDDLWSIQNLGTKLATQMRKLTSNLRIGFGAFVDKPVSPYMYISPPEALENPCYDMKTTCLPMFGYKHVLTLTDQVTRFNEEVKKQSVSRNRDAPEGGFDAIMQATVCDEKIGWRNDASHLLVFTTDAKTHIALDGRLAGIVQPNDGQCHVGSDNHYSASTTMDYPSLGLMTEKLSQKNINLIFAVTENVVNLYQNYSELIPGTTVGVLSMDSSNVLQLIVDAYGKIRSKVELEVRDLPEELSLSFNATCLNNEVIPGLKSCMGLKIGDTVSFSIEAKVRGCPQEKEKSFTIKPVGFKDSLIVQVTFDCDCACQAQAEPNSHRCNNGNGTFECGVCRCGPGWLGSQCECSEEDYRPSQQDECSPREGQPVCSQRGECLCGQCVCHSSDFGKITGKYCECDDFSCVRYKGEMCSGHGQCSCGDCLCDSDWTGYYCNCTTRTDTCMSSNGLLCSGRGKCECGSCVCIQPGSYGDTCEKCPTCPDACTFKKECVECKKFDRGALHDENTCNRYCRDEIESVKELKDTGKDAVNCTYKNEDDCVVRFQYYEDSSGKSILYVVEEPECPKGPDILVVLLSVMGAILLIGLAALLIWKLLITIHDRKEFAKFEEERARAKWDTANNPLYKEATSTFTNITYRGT
UniProt P18084: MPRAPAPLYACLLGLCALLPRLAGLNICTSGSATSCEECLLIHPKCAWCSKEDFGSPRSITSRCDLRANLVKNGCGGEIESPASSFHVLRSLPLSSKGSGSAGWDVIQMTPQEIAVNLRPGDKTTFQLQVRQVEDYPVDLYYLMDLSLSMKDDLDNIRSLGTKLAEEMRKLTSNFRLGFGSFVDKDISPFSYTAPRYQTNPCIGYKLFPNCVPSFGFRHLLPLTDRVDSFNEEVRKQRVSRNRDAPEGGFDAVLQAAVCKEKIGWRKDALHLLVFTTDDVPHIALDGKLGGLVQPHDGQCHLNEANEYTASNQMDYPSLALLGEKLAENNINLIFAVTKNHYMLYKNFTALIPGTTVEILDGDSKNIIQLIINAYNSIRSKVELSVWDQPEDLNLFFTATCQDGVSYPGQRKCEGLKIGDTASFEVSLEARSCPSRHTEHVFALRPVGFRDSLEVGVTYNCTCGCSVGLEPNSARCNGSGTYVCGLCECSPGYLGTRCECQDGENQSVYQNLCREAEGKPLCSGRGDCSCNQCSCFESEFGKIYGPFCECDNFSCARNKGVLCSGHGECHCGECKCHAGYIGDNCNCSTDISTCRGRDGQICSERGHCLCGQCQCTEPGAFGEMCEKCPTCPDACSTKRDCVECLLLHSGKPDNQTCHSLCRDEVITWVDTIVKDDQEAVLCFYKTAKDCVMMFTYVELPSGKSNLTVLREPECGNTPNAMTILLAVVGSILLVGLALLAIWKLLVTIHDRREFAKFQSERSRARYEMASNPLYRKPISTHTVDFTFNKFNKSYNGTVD
recombinant human tropoelastin (Elastagen) (P15502, form named): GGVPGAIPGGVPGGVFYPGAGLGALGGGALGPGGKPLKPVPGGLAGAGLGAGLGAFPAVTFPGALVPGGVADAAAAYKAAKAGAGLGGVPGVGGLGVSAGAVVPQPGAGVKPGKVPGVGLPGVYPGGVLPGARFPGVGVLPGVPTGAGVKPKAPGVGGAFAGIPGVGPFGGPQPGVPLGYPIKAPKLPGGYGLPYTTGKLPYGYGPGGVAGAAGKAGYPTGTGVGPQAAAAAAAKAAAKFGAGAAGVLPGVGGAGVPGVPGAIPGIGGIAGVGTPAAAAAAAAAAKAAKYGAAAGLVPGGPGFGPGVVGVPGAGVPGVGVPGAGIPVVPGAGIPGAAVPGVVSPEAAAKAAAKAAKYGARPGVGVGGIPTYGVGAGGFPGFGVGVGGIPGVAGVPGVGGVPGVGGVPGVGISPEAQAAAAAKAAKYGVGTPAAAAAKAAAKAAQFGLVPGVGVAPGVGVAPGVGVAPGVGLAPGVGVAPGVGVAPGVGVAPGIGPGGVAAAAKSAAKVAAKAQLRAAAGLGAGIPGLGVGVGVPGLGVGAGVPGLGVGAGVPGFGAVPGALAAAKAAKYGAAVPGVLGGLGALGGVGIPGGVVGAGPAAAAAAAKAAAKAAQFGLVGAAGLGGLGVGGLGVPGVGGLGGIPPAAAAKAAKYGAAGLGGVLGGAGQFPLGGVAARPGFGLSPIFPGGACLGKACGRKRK

In assay [1] the target is integrin αvβ3 on human bone marrow-derived MSCs (human) (UniProt P06756+P05106). The experiment in a line: inferred from antibody blocking of MSC spreading, proliferation and migration.
Assay [2] has as its target integrin αvβ5 on human bone marrow-derived MSCs (human) (UniProt P06756+P18084). The description is as above.

Results are given in words; binding and its absence hold for the method and conditions named. Some results given as binding are weak or reduced against the parent protein; the word gives no strength.

On to “recombinant human tropoelastin (Elastagen) (from UniProt P15502 27-724) (ligand)”, for which the binding result in assay [1] and in assay [2] was “binds” in each case.
